From publication PMC12040169 (PLOS Biology, 2025)
The list shows a part of the results.

What follows are compounds tested on T1, CTL2-GFP (C. trachomatis L2/434/Bu, GFP-expressing). Conditions: bulk GFP, single well; 28.5 h, 10 µM; inhibitor.
T1 construct: L2/434/Bu, GFP-expressing
Design: species or system HeLa; Intracellular C. trachomatis growth in HeLa cells, bulk GFP fluorescence relative to DMSO

Structure (SMILES)	% of control remaining
Cc1ccc(S(=O)(=O)N2CCN(C(=O)C3CCCCC3C(=O)O)CC2)cc1C (centres unmarked) [CBK286936]	134.964%
CCNC(=O)N1Cc2nc[nH]c2C[C@H]1C(=O)NCc1ccc(OC)cc1 [CBK288973]	123.012%
O=C(Nc1cccc(N2CCNCC2)c1)c1cnc2ccccc2c1 [CBK029415T]	113.415%
O=C(CN1CCOCC1)Nc1ccc(S(=O)(=O)Nc2cc(Cl)cc(Cl)c2)cc1 [CBK001239]	100.94%
O=C(CSc1nnc(-c2cccnc2)n1Cc1ccccc1)Nc1ccc(F)cc1 [CBK267528]	100.364%
Nc1ncc(-c2cccc(/C=C/C(=O)O)c2)nc1NCc1ccco1 [CBK063691]	215.421%
O=C(NCCN1CCOCC1)N1CCN(c2ccccc2)CC1 [CBK155180]	135.514%
CCn1c(=O)n(CC(=O)NCc2ccc(F)cc2)c2cccnc21 [CBK283901]	109.248%
CNCC(=O)N1c2ccccc2CCc2ccc(NC(=O)OC)cc21 [CBK261285C]	95.3969%
CC1(C)C[C@H](NC2CCOCC2)[C@@]2(CCC(=O)N3CCOCC3)CC[C@](C)(O)C[C@@H]12 [CBK289041]	144.158%
O=C(CCc1ccccc1)NC(c1cccc([N+](=O)[O-])c1)c1c(O)ccc2ccccc12 (centres unmarked) [CBK265278]	100.538%
CCN(CC)C(=O)CN1CC=C(c2ccc(C)o2)CC1 [CBK283497]	117.456%
CC(C)Oc1ccc(C(=O)C2=C(O)C(=O)N(CCN(C)C)C2c2ccccc2F)cc1 (centres unmarked) [CBK264886]	115.16%
OC(c1cccs1)C1CCN(Cc2cnn(-c3ccccc3)c2)CC1 (centres unmarked) [CBK307290]	101.308%
CC(C)[C@@H](Cn1nc(C2CC2)ccc1=O)NC(=O)c1ccco1 [CBK282321]	130.183%
Cc1ccc(N2C(=O)/C(=C/c3ccc(O)c(O)c3)SC2=S)cc1C [CBK262756]	108.449%
COC(=O)NCCc1c[nH]c2ccc(OC)cc12 [CBK084597]	157.066%
CC1CCN(S(=O)(=O)c2ccc(Oc3ccc([N+](=O)[O-])cc3)cc2)CC1 [CBK261774]	111.287%
O=C(c1cc[nH]n1)N1CCC(c2cc3ccccc3cn2)CC1 [CBK284892]	104.464%
O=C(O)C1CCC(CNC(=O)C2Cc3ccccc3CN2)CC1 (centres unmarked) [CBK286745]	128.511%
CSCc1nc2ccccc2n1CC(=O)N(CCC#N)Cc1ccco1 [CBK305440]	109.547%
O=C(Cc1ccccc1)N/N=C/c1cccc2cccnc12 [CBK262778]	116.117%
CCOC(=O)C1CCCN(Cc2nc3cc(Cl)ccc3c(=O)[nH]2)C1 (centres unmarked) [CBK306198]	122.809%
Cc1cc2nc(/C(C#N)=C/c3cc(C)n(-c4ccc(C(=O)O)cc4)c3C)[nH]c2cc1C [CBK269105]	139.485%
Cc1cnc(CNC(=O)c2cnoc2-c2ccccc2)cn1 [CBK154926]	127.204%
O=C(NCCc1ccc(O)cc1)C1(c2ccccc2)CCCC1 [CBK149535]	96.6221%

Structure (SMILES)	% of control remaining
CCOC(=O)c1cnn(-c2cc(Oc3ccccc3)ncn2)c1N [CBK098284]	101.582%
O=C(O)c1cccc(-n2nnnc2SCc2ccccn2)c1 [CBK266744]	79.9222%
O=C(CC1S/C(=N/N=C/c2ccc(-c3ccc(Cl)c([N+](=O)[O-])c3)o2)NC1=O)Nc1ccccc1 (centres unmarked) [CBK264473]	100%
COc1cc(F)ccc1-c1ccc2ccc(NC(=O)C(C)C)nc2n1 [CBK073666]	188.351%
COc1ccc(C(C)C)cc1-c1cc(NCCc2cccnc2)n2nccc2n1 [CBK037097]	156.426%
CCCCNC(=O)OC1CCN(CCc2ccccc2)CC1 [CBK022839C]	125.699%
CCc1nnc(SCc2ccc(CSc3nnc(CC)n3N)cc2)n1N [CBK265689]	93.8817%
CN(C)CCN(C)c1cc(-c2ccc(F)c(Cl)c2)nc2ccnn12 [CBK037230]	177.411%
CC(C)(C)C(Cn1cccn1)NC(=O)CCC(=O)O (centres unmarked) [CBK286897]	115.331%
CC(C)(C)CC(NC(=O)C1CCCN(S(C)(=O)=O)C1)c1ccccc1 (centres unmarked) [CBK304563]	111.445%
Cc1cc2c(cc3c(=O)n(CC(=O)OC(C)C)nc(C)n32)s1 [CBK284071]	111.595%
O=C(O)CCSc1nnc(-c2cccc(Br)c2)o1 [CBK286540]	120.51%
O=C(Cn1cc(C(=O)NC2(c3ccccc3)CCCC2)ccc1=O)NC1CCCCC1 [CBK285986]	124.41%
O=C(Nc1ccc2nc(SCc3ccc([N+](=O)[O-])cc3)sc2c1)c1ccccc1 [CBK263427]	119.808%
COC(=O)[C@@H](C)NC(=O)[C@H]1CN(C(=O)Nc2ccccc2)CCN1C(=O)c1cccs1 [CBK289629]	141.728%
O=C(COc1ccc(S(=O)(=O)NC2CCCC2)cc1)Nc1ccc2c(c1)OCCO2 [CBK266431]	134.838%
CC(=O)Nc1ccc(Nc2nc(Br)cn3ccnc23)cc1 [CBK066338]	134.891%
CCC(CC)C(=O)Nc1nc(OC)cnc1-c1cc(Cl)cc(Cl)c1 [CBK145338]	110.112%
Cc1cccc(CC(=O)N2CCC(Cc3ccccc3-c3ccccc3)(C(N)=O)CC2)c1 [CBK285731]	121.511%
Cc1cc(C)cc(C(=O)N2CCCC(C(=O)N3CCN(c4nccs4)CC3)C2)c1 (centres unmarked) [CBK298307]	104.768%
O=C(c1cc(-c2ccncc2)nc2ccc(Cl)cc12)N1CCN(C/C=C/c2ccccc2)CC1 [CBK267754]	107.859%
O=C(O)c1ccc(CNC(=O)c2ccc(Cl)c(S(=O)(=O)N3CCCC3)c2)cc1 [CBK297096]	170.793%
Cc1cc(Cc2ccc(Cl)cc2)cc(C2CCN(C(=O)Cc3csc(C)n3)CC2)n1 [CBK286526]	107.467%
CS(=O)(=O)N(Cc1cc2ccccc2nc1O)CC1CCCO1 (centres unmarked) [CBK269517]	144.969%
C=CCO[C@@H]1C[C@H]2C(=O)N3CC[C@H](NC(=O)[C@@H](O)c4ccccc4)C[C@H]3C(=O)N2C1 [CBK289556]	128.707%
O=[N+]([O-])c1ccc(O)c(/C=N/Nc2nc(Nc3ccc(Cl)cc3)nc(N3CCOCC3)n2)c1 [CBK260918]	110.618%

Structure (SMILES)	% of control remaining
Cn1c(=O)c2c(nc(CN3CCN(c4ccccc4)CC3)n2Cc2ccccc2)n(C)c1=O [CBK269557]	142.006%
CCCCN(C)c1c(CC)nc2ccc(C(=O)NC3=NC(=O)CS3)cn12 [CBK145464]	92.9053%
CCC(NC(=O)C(C)n1cc(Cl)cn1)c1ccc(OC)cc1 (centres unmarked) [CBK282029]	153.298%
Cc1ccc(-c2noc([C@@H]3Cc4[nH]cnc4CN3C(=O)c3cccs3)n2)cc1 [CBK288957]	130.504%
CCc1nc2ccc(C(=O)Nc3ccc(C(N)=O)cc3)cn2c1N(C)CCC(C)C [CBK145476]	120.547%
O=C(O)c1cccc(CSCC(=O)N2CCC(Cc3ccccc3)CC2)c1 [CBK296675]	130.885%
CC(=O)N1CC(C(=O)Nc2ccccc2Cc2ccccc2)Oc2ccccc21 (centres unmarked) [CBK297525]	123.342%
COc1ccc(C(C)C)cc1-c1ccc(C(=O)N2CCN(C)CC2)c(N(C)C)n1 [CBK106130]	155.285%
Cc1ccc(S(=O)(=O)CCC(=O)Nc2ccc3sc(C)nc3c2)cc1 [CBK287706]	110.381%
CC(C)(C)c1cc(C(C)(C)C)cc(S(=O)(=O)CCc2ccccn2)c1 [CBK261073]	102.298%
CCNc1cc(-c2cccc(N)c2)ncn1 [CBK037731]	102.089%
COc1ccccc1C(=O)N1CCC(Cc2ccc(-c3cccc(C)c3)cc2)(C(N)=O)CC1 [CBK285792]	104.59%
C[N+](C)(C)C1=C([O-])c2ccccc2C1=O [CBK009824]	119.467%
Clc1nccnc1N1CCCC1 [CBK083594]	122.313%
N#Cc1ccccc1Cn1cc(C(=O)COc2ccccc2)c2ccccc21 [CBK268532]	137.661%
CCOc1ccc(S(=O)(=O)NCCCN2CCOCC2)c2ccccc12 [CBK018421]	107.225%
Fc1ccc(OCc2nn3cnnc3s2)cc1 [CBK287288]	138.907%
C[C@H]1CNCCN1c1nccnc1Cl [CBK047524F]	111.845%
CN(C)S(=O)(=O)c1ccc(CCC(=O)O)cc1 [CBK287216]	131.945%
CCN(C(=O)CC1SC(NCC2CCCCC2)=NC1=O)c1ccccc1 (centres unmarked) [CBK067373]	132.416%
C=CCn1c(Cc2csc(NC(=O)c3ccc(C(C)=O)s3)n2)n[nH]c1=S [CBK295299]	169.363%
Cc1sc(-c2ccc(Cl)nc2)nc1OC(=O)c1cccs1 [CBK067733]	92.6367%
O=S(=O)(Cc1ccccc1)Nc1cccc2[nH]ccc12 [CBK159490]	188.048%
O=C(COc1ccccc1)NC1C(=O)N2C(C(=O)O)=C(Cl)CSC12 (centres unmarked) [CBK266903]	155.928%
COc1ccc(NCc2cc(I)c(OCc3ccccc3)c(OC)c2)cc1 [CBK074452]	77.4571%

No new results follow: an excerpt of the list.
Structure (SMILES)	% of control remaining
Cc1ccc(S(=O)(=O)CCC(=O)Nc2ccc3sc(C)nc3c2)cc1 [CBK287706]	110.381%
CC(C)(C)c1cc(C(C)(C)C)cc(S(=O)(=O)CCc2ccccn2)c1 [CBK261073]	102.298%
CCNc1cc(-c2cccc(N)c2)ncn1 [CBK037731]	102.089%
COc1ccccc1C(=O)N1CCC(Cc2ccc(-c3cccc(C)c3)cc2)(C(N)=O)CC1 [CBK285792]	104.59%
